Measurements: article PMC5075913
Where a chain is given by its changes, count along the chain named. No constants are given. Whether binding was seen depends on the method and setting. Binding seen in cells or lysates may run through a third protein. Some entries that bind do so weakly or less than the wild type. One block for each substance: values may come before it.

Protein sequences, listed by entry. Tags and fused reporters are not part of them. Lines headed by an entry give the natural chain unless they say otherwise; changes in a name come on top.
UniProt O60331: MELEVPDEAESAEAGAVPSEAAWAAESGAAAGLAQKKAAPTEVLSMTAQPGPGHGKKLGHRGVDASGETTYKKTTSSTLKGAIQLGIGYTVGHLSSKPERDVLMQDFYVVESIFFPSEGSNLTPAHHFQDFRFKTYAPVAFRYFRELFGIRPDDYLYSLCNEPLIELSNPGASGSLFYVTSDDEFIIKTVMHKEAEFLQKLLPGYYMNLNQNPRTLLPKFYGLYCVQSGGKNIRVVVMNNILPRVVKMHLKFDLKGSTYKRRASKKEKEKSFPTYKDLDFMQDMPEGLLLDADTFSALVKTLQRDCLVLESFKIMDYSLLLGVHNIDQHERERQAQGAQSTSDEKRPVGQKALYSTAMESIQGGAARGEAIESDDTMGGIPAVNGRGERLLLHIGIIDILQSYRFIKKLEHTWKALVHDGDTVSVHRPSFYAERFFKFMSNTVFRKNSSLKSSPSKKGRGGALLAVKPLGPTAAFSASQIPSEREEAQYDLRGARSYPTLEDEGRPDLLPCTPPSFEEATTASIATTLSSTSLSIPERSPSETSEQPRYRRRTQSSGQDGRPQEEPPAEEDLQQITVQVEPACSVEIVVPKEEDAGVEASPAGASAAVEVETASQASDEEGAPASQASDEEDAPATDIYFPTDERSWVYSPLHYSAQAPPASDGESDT
UniProt P34152: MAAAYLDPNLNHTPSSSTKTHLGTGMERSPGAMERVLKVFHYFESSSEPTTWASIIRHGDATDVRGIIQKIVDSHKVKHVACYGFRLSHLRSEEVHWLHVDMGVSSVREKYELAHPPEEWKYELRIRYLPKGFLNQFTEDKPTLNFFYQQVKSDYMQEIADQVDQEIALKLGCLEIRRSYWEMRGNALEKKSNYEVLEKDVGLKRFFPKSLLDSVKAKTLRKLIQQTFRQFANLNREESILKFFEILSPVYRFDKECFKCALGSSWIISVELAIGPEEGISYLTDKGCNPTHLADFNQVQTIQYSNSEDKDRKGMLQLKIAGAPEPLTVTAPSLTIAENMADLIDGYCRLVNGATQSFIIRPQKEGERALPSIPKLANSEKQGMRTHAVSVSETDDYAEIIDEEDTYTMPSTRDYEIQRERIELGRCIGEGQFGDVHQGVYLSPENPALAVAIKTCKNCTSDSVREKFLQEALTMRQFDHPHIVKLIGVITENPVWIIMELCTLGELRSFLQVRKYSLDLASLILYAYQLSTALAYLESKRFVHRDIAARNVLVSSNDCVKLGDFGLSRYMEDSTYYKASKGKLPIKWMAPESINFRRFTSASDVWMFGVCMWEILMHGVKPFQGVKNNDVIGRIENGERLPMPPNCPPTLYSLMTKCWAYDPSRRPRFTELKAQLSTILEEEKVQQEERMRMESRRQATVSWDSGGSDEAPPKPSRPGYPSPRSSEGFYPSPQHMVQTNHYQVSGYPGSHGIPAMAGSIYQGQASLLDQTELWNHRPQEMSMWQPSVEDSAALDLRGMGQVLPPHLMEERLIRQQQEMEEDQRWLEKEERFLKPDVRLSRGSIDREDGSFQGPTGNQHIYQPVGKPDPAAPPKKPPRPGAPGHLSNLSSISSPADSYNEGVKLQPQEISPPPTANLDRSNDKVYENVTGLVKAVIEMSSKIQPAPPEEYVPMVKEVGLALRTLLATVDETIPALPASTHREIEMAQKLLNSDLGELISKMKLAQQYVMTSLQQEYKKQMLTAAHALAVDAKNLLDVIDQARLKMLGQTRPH
UniProt P26039: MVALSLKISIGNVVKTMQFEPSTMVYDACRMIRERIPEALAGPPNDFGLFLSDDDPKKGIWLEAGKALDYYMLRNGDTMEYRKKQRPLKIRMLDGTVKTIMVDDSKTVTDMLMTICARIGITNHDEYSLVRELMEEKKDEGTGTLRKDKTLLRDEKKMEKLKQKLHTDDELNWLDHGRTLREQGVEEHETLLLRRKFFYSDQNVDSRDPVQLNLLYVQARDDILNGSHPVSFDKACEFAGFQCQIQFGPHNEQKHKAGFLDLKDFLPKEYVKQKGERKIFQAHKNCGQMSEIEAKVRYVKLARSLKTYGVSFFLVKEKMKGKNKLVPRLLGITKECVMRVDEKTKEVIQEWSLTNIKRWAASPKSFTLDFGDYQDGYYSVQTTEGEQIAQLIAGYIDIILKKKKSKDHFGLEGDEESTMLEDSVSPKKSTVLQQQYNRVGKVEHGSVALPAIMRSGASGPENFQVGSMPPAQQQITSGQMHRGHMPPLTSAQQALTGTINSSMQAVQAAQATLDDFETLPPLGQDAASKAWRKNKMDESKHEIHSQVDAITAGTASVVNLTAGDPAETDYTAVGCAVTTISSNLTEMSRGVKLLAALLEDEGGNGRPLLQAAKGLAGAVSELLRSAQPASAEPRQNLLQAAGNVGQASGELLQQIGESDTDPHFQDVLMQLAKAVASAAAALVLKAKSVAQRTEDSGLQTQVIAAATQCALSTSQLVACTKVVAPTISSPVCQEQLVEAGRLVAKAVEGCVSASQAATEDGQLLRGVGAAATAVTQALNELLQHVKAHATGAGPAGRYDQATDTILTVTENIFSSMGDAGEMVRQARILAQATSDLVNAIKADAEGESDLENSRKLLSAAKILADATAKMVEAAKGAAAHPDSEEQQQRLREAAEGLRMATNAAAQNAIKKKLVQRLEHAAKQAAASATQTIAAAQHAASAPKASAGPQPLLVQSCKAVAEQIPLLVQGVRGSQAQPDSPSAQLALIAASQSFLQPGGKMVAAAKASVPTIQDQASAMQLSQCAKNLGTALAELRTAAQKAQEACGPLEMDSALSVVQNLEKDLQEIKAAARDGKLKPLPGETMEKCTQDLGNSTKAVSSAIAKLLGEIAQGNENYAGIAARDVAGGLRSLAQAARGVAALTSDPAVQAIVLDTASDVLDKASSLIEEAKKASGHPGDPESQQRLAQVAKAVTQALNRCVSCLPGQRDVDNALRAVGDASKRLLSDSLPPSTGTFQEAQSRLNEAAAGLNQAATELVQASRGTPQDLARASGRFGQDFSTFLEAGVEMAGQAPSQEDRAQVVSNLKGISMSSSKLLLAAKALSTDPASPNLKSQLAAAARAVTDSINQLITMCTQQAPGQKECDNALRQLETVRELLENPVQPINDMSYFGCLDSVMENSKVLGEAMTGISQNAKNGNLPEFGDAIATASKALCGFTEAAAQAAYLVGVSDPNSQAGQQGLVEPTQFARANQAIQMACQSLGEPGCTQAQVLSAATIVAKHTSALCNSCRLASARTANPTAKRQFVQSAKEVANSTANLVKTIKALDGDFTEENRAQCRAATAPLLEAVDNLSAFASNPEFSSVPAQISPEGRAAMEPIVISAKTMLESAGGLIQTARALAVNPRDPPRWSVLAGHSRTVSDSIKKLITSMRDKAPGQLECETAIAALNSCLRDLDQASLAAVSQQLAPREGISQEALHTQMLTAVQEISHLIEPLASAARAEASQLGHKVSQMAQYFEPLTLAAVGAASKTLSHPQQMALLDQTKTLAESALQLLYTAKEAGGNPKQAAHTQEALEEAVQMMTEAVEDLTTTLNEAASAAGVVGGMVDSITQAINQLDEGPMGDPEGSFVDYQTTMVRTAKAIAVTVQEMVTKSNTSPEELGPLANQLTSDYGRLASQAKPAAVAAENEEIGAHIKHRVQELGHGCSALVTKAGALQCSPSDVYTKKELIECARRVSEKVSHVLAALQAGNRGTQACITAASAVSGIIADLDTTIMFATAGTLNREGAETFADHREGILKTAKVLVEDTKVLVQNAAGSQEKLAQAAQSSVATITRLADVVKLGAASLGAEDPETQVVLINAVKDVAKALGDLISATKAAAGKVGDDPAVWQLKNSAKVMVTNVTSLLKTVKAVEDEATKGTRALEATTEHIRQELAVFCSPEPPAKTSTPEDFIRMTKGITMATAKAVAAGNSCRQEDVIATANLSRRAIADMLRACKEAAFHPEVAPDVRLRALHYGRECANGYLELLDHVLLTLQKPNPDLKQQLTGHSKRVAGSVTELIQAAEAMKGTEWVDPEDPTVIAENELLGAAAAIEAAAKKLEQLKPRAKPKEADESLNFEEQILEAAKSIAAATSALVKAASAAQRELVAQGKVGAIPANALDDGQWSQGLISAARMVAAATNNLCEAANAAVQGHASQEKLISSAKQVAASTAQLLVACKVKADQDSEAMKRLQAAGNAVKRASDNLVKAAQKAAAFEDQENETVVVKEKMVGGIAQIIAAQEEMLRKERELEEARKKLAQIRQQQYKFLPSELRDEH
UniProt Q05397: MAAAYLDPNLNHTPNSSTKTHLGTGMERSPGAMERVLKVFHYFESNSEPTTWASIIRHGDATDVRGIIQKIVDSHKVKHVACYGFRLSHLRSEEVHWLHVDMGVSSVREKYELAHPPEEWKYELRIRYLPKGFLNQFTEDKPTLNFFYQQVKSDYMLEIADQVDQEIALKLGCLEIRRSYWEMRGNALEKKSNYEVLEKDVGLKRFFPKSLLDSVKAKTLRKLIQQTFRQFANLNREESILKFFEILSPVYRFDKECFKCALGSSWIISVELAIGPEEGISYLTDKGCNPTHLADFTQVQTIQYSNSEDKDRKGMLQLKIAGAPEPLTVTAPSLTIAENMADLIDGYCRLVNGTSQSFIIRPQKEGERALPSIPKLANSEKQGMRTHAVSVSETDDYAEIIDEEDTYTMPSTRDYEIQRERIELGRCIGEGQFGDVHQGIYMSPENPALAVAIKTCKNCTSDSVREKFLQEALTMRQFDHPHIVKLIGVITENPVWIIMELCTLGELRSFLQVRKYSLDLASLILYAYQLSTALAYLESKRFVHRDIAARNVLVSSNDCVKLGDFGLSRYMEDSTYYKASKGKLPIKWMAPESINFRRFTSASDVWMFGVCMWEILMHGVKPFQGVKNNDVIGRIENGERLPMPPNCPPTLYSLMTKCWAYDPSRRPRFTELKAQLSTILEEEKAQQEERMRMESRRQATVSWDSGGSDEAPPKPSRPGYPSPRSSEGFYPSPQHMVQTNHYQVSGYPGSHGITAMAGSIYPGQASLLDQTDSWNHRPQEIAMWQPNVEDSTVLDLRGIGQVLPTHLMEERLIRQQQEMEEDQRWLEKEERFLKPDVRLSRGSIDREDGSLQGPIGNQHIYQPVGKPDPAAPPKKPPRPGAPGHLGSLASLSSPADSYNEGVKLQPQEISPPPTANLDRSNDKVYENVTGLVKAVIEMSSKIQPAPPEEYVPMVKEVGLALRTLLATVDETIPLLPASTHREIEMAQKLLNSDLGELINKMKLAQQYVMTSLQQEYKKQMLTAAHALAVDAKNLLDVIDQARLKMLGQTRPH

Key:
[1] = biological target: T1, Protein Kinase D1 (PKD1), endogenous (mouse (endogenous in NIH-3T3)) (UniProt Q62101); experiment: co-IP; NIH-3T3 cells serum-starved for 16 hours, stimulated with 10 μg/ml fibronectin for 30 minutes; endogenous PKD1 immunoprecipitated, blot for endogenous FAK; lysis in Buffer A (50 mM Tris-HCl pH7.4, 1% Triton X-100, 150 mM NaCl, 5 mM EDTA)
T1 sequence: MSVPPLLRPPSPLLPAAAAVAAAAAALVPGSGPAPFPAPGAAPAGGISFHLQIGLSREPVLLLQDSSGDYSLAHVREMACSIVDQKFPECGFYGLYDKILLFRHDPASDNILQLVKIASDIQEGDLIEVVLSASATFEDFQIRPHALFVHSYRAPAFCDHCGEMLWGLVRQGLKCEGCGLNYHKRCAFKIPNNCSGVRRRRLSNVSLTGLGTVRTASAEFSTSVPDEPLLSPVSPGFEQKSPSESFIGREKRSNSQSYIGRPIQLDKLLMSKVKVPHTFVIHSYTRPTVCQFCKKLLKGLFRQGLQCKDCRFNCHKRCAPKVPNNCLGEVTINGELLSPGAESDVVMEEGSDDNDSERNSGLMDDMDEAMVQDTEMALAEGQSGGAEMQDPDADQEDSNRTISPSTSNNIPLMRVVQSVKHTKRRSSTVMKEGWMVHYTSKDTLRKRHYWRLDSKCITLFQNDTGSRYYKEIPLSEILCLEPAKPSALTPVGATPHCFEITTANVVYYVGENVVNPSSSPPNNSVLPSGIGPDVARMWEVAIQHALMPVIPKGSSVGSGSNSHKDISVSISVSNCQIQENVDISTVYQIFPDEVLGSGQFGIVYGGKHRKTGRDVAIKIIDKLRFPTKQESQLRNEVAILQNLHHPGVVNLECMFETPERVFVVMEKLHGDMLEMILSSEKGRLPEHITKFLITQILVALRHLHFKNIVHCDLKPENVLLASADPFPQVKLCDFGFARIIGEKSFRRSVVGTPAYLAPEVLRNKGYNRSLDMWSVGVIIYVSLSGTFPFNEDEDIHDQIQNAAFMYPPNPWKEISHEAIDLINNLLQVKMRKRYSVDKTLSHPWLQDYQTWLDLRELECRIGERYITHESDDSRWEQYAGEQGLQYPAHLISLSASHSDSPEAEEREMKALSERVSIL

[2] = biological target: HA-tagged PIP5Klγ.S448A (human) (UniProt O60331); experiment: co-IP; Hek293T cells co-transfected with GFP-tagged Talin and HA-tagged PIP5Klγ or PIP5Klγ.S448A (S448A also with FLAG-tagged PKD1.CA); anti-HA immunoprecipitation, blot with anti-GFP
[3] = biological target: HA-tagged phosphatidylinositol-4-phosphate 5-kinase type-l gamma (PIP5Klγ), wild type (human) (UniProt O60331); experiment: as above
[4] = biological target: T2, constitutively-active PKD1 (S738E/S742E), ectopically expressed (human) (UniProt Q15139); experiment: co-IP; ectopically-expressed FAK and ectopically-expressed PKD1 (wild type or constitutively-active); Supplemental Figure S1C,D; who was precipitated is not told in the text shown
T2 sequence: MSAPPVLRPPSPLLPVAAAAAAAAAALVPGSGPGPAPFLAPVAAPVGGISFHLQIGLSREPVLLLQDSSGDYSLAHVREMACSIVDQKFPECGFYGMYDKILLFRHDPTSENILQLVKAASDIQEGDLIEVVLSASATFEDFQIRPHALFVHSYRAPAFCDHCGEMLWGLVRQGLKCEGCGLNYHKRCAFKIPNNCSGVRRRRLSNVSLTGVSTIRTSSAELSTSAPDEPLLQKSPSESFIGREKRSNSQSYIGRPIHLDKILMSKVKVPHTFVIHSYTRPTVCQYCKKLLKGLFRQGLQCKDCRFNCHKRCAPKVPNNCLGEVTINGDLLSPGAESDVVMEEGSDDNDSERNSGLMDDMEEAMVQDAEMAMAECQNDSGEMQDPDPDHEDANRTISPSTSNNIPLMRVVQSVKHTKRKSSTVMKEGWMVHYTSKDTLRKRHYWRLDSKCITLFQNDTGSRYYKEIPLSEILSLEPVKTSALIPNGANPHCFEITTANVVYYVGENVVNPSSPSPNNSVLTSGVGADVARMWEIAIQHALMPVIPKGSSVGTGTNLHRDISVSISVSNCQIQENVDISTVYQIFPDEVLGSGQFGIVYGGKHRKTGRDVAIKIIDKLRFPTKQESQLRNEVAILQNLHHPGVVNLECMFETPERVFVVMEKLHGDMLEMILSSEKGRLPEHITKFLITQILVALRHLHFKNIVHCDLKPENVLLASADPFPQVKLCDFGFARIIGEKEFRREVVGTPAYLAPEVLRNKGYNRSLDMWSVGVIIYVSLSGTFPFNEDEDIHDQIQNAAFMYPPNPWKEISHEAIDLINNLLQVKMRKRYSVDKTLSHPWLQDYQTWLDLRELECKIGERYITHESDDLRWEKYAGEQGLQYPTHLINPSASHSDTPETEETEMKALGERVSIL

[5] = biological target: T3, wild type PKD1, ectopically expressed (human) (UniProt Q15139); experiment: as above
T3 sequence: T2 sequence with E738S, E742S

- binding [1]: binds
Substance: focal adhesion kinase (FAK), endogenous (from UniProt P34152 1-1052) (enzyme)

- binding [2]: binds
- binding [3]: binds
Substance: GFP-tagged Talin (from UniProt P26039 1-2541)

- binding [4]: binds
- binding [5]: binds
Substance: ectopically-expressed FAK (from UniProt Q05397 1-1052) (enzyme)
